Measurements published in PubChem BioAssay AID493014 (National Center for Advancing Translational Sciences (NCATS), 2011).
The other results are listed elsewhere or left out. These are further read-outs of the screen, such as a control signal, another cell line or another target. No call is given for them. The list favours compounds with an active or inconclusive main result. Words in brackets tell the shape of the fitted curve; partial curves, single points and poor fits give uncertain potencies.

Experiment: qHTS Assay to Find Inhibitors of Chronic Active B-Cell Receptor Signaling
Conditions: ABC-DLBCL IkBa-CBG/CBR reporter, luminescence ratio (green luciferase fused to IkBa over red control in TMD8 lymphoma cells), 4 h
In short: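 TMD8 human ABC-DLBCL cells with doxycycline-inducible IκBα–green luciferase fusion and unfused red luciferase, in 0.5% FBS medium; compounds up to 46 uM, 4 h at 37C. Green/red luminescence ratio, filter-overlap corrected, fitted to concentration-response curves.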

[1] = measured here: CBR red luminescence, cell number
[2] = measured here: IkBa-CBG green luminescence

| Structure (SMILES) | AC50 [1] | AC50 [2] |
| --- | --- | --- |
| COCCN(C(=O)CSc1nnc(-c2cccc(OC)c2)n1C)c1c(N)n(Cc2ccccc2)c(=O)[nH]c1=O | 35.5 µM [rising, single point] | – |
| Cc1ccccc1-c1nnn(Cc2cccc(S(=O)(=O)N3CCOCC3)c2)n1 | 29.1 µM [falling, partial curve, poor fit] | – |
| O=C(N/N=C/c1ccccc1O)c1cc(=O)[nH]c2ccccc12 | 20.6 µM [rising, partial curve] | – |
| CCOC(=O)N1CCN(C(=O)c2ccc3c(c2)N(Cc2ccc(C)cc2)CCS3)CC1 | 18.4 µM [falling, single point] | – |
| CCCCC(=O)NNC(=S)NC(=O)c1ccc(C)cc1 | 17.8 µM [rising, single point] | – |
| Clc1ccc(/C=N/NC2=Nc3cccc4cccc2c34)cc1 | 2.91 µM [rising, partial curve, poor fit] | 8.2 µM [falling, partial curve, poor fit] |
| CC1=CC(c2ccccc2)=Nc2ccc(C)cc2N1 | 23.1 µM [falling, partial curve, poor fit] | – |
| CCOC(=O)N1CCN(C(=O)c2cc3c(=O)[nH]c4ccccc4c3s2)CC1 | 1.64 µM [rising, full curve, poor fit] | – |
| CCn1c(SCC(=O)Nc2cc(C)c(Cl)cc2OC)nnc1-c1ccco1 | 3.66 µM [rising, partial curve, poor fit] | – |
| COC(=O)c1[nH]c2c(c1C)C(=O)CC(c1cccs1)C2 (configuration not stated) | 3.26 µM [rising, full curve] | – |
| CN(C)CCCN(C(=O)/C=C/c1cccs1)c1nc2ccc(F)cc2s1 | 25.1 µM [falling, single point] | – |
| O=C(Nc1ccc(Cc2ccncc2)cc1)c1ccc(Cl)c([N+](=O)[O-])c1 | 35.5 µM [falling, single point] | – |
| COc1ccc(/C=C/C(=O)Nc2cc(=O)n(C)c(=O)n2C)cc1 | 6.51 µM [rising, full curve, poor fit] | – |
| O=C(NC(=S)Nc1ccc2oc(=O)ccc2c1)c1ccc(-c2cccc(Cl)c2Cl)o1 | 4.61 µM [falling, partial curve, poor fit] | – |
| CCN1CCN(CC(=O)N2c3ccccc3Sc3ccccc32)CC1 | 35.5 µM [rising, single point] | – |
| CCC(C)OC(=O)n1ccc(C(=O)Nc2nccs2)n1 (configuration not stated) | 11.6 µM [falling, partial curve, poor fit] | – |
| COC(=O)N/N=C\c1c(C)nn(-c2ccccc2)c1Cl | 23.1 µM [falling, partial curve] | – |
| CCC(=O)NNc1ncnc2c1cnn2-c1ccc(C)c(Cl)c1 | 5.62 µM [falling, partial curve] | – |
| COC(=O)c1c(NC(=O)CN(c2ccc(C)c(C)c2)S(C)(=O)=O)sc2c1CCCC2 | – | 32.6 µM [rising, partial curve, poor fit] |
| COCCNC(=O)c1onc(CSc2ccccc2F)c1C(=O)O | 11.2 µM [falling, partial curve, poor fit] | – |

Random excerpt: three records from the list.

| Structure (SMILES) | AC50 [1] | AC50 [2] |
| --- | --- | --- |
| Cc1ccccc1-c1nnn(Cc2cccc(S(=O)(=O)N3CCOCC3)c2)n1 | 29.1 µM [falling, partial curve, poor fit] | – |
| CCOC(=O)N1CCN(C(=O)c2ccc3c(c2)N(Cc2ccc(C)cc2)CCS3)CC1 | 18.4 µM [falling, single point] | – |
| O=C(N/N=C/c1ccccc1O)c1cc(=O)[nH]c2ccccc12 | 20.6 µM [rising, partial curve] | – |

(list continues)

| Structure (SMILES) | AC50 [1] | AC50 [2] |
| --- | --- | --- |
| Fc1ccc(CNCc2cccc(Br)c2)cc1 | 20.6 µM [rising, partial curve, poor fit] | – |
| COc1ccc(NC(=S)N/N=C/c2ccc(F)cc2)cc1OC | 15.8 µM [rising, partial curve, poor fit] | 28.2 µM [falling, partial curve, poor fit] |
| Cc1cc(C)c(NC(=O)CN2C(=O)NC3(CCCCC3)C2=O)c(C)c1 | 2.82 µM [rising, partial curve, poor fit] | – |
| Cc1c(CC(=O)NCC(=O)NCC(=O)O)c(=O)oc2cc3oc4c(c3cc12)CCCC4 | 35.5 µM [rising, single point] | – |
| O=C(CSC1=NCCS1)Nc1ccc(S(=O)(=O)N2CCCCCC2)cc1 | 35.5 µM [falling, single point] | – |
| Cc1nc2ccccc2c(=O)n1/N=C/c1ccc(O)cc1O | 22.4 µM [falling, single point] | – |
| COc1ccccc1NC(=O)COc1cc(Br)c(CNCCCN2CCOCC2)cc1OC | 12.6 µM [falling, single point] | – |
| CN(CCC#N)C(=O)COC(=O)c1ccc2[nH]c3c(c2c1)CCCC3 | – | 7.94 µM [rising, partial curve, poor fit] |
| COc1ccc(S(=O)(=O)N(C)CC(=O)NCCCn2ccnc2)cc1Cl | 35.5 µM [rising, single point] | – |
| O=C(O)/C=C/C(=O)Nc1ccc(O)cc1 | 0.224 µM [falling, full curve, poor fit] | – |
| COc1cccc(N2CCN(Cc3nc(N)nc(Nc4ccccc4OC)n3)CC2)c1 | 0.461 µM [rising, full curve, poor fit] | – |
| CC(=O)c1cccc(NC(=S)NC(=O)c2cccc(Cl)c2)c1 | 3.66 µM [rising, partial curve, poor fit] | – |
| O=C(COc1ccc(Br)cc1)Nc1nnc(-c2cccnc2)s1 | 3.16 µM [rising, single point] | – |
| Cc1cc(NC(=O)c2ccc(S(=O)(=O)Nc3ccccc3)cc2)no1 | 5.62 µM [falling, partial curve] | – |
| COc1ccc(NC(=O)N(Cc2ccc(C)cc2)Cc2cccnc2)c(OC)c1 | 23.1 µM [rising, partial curve, poor fit] | – |
| COc1ccc(NC(=O)C(=O)N/N=C(\C)CC(=O)Nc2cc(C)ccn2)c(OC)c1 | 11.2 µM [falling, partial curve] | – |
| COc1cc(C(=O)NC(=S)NNC(=O)c2ccc3c(c2)OCO3)cc(OC)c1OC | 7.08 µM [falling, full curve, poor fit] | – |
| Cc1cc(C)c(CN2CCC(n3nccc3NC(=O)C3CCCC3)CC2)cc1C | 7.08 µM [falling, full curve] | – |
| COc1ccc2nc(SCCC(=O)O)cc(C)c2c1 | 12.6 µM [falling, single point] | – |
| Cn1c(SCc2ccc(Br)cc2)nnc1-c1ccccn1 | 22.4 µM [rising, single point] | – |
